Measurements taken from patent publication EP4831176A1, “BICYCLIC FUSED HETEROAROMATIC RING DERIVATIVE, AND PHARMACEUTICAL COMPOSITION AND USE THEREOF” (dated 2026).
Structures were worked out from names or drawings and are uncertain.

Protein sequences, listed by entry. Tags and fused reporters are not part of them.
UniProt O75530, whole entry: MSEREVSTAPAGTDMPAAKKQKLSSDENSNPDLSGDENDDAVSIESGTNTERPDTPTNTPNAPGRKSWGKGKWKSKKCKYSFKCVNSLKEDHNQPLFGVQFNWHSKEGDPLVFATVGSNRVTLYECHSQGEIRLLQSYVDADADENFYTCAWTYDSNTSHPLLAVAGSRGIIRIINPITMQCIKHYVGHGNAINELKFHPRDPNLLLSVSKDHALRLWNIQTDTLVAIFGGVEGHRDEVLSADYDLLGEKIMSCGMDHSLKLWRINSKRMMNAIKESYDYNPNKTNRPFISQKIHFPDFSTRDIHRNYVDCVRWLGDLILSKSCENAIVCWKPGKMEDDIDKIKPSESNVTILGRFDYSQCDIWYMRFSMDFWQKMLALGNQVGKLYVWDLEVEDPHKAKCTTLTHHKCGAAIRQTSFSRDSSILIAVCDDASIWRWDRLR

tested on: Pfeiffer cells; assay: Proliferation inhibition of Pfeiffer tumor cells, Cell Titer-Glo; conditions: read-out: CTG IC50, 144 hours incubation
Description: In this experiment, Cell Titer-Glo reagent was used to quantitatively analyze the proliferation activity of Pfeiffer cells to detect the inhibitory ability of the compounds on tumor cell proliferation. The specific steps were as follows: • 1. Pfeiffer cells were purchased from Nanjing Cobioer (purchased from ATCC, Catalog No. #CRL2632), subcultured and maintained in logarithmic growth state using RPMI-1640 complete medium (containing 10% v/v fetal bovine serum) according to the supplier's recommended conditions. […] Before cell seeding, cells were collected in a centrifuge tube, centrifuged at 250 rcf for 3 minutes, and the culture medium was discarded. The cells were resuspended in fresh complete medium, and 20 µL of the cell suspension was taken to calculate the cell concentration using a Countstar cell counter. After adjusting the density, cells were seeded into a 384-well plate at 2,000 cells/45 µL and pre-incubated in a 37°C, 5% CO2 incubator for 4 hours. • 3. The negative and positive control groups were treated with 5 µL of control solution (non-complete medium containing 1% v/v DMSO). Compound gradient dilutions were prepared using non-complete medium, and 5 µL of the dilutions were added to the corresponding culture wells. The final concentration of DMSO in the test was 0.1% v/v. Subsequently, the plate was incubated in a 37°C, 5% CO2 incubator for 144 hours. • 4. 40 µL of Cell Titer-Glo reagent was added directly to the cell culture, and the plate was incubated at room temperature in the dark for 30 minutes. The luminescence value was then read on a plate reader, and the results were used to analyze the cell proliferation ratio and compound activity. • 5. The signal value of the negative control group was set as Bottom, and the signal value of the positive control group was set as Top. The compound concentration value (logarithm) was the X-axis, and the luminescence reading at the corresponding concentration was the Y-axis, with HillSlope as the slope factor. A four-parameter logistic model (4PL logistic model) was used for fitting, and the calculation method was as follows:Y = Bottom + (Top - Bottom) / (1 + 10^((Log IC50 - X) × HillSlope))
After fitting, the IC50 value of the compound was calculated, and the proliferation inhibitory activity of the compound was compared based on the IC50 value.

SMILES	IC50
Cn1nc(C2CCC(=O)NC2=O)c2ccc(N3CCN(C4CCN(Cc5ccc(-c6cnc(NCc7c(F)ccc8c7CCO8)n7cnc(Cl)c67)cn5)CC4(F)F)CC3)cc21 (centres unmarked)	1.15 nM
Cc1ncsc1-c1ccc([C@H](C)NC(=O)[C@@H]2C[C@@H](O)CN2C(=O)[C@@H](NC(=O)CCCNC(=O)c2ccc(-c3cnc(NCc4c(F)ccc5c4CCO5)n4cnc(C)c34)cn2)C(C)(C)C)cc1	60 nM
Cn1nc(C2CCC(=O)NC2=O)c2ccc(N3CCC(CN4CCC(n5ncc(-c6cnc(NCc7c(F)ccc8c7CCO8)n7cnc(Cl)c67)c5C(F)(F)F)CC4)CC3)cc21 (centres unmarked)	20 nM
Cc1nc(CN2CCC(N3CCN(c4ccc5c(C6CCC(=O)NC6=O)nn(C)c5c4)CC3)C(F)(F)C2)ccc1-c1cnc(NCc2c(F)ccc3c2CCO3)n2cnc(Cl)c12 (centres unmarked)	2.18 nM
Cc1ncsc1-c1ccc([C@H](C)NC(=O)[C@@H]2C[C@@H](O)CN2C(=O)[C@@H](NC(=O)C2CN(c3ccc(-c4cnc(NCc5c(F)ccc6c5CCO6)n5cncc45)cc3S(C)(=O)=O)C2)C(C)(C)C)cc1	176 nM
Cc1nc(C(=O)NCCCC(=O)N[C@H](C(=O)N2C[C@H](O)C[C@H]2C(=O)N[C@@H](C)c2ccc(-c3scnc3C)cc2)C(C)(C)C)ccc1-c1cnc(NCc2c(F)ccc3c2CCO3)n2cnc(I)c12	45 nM
Cc1ncsc1-c1ccc([C@H](C)NC(=O)[C@@H]2C[C@@H](O)CN2C(=O)C(c2cc(N3CCN(CC4CCN(c5ccc(-c6cnc(NCc7c(F)ccc8c7CCO8)n7cnc(Cl)c67)cc5)CC4)CC3)no2)C(C)C)cc1 (some centres unmarked)	58 nM
CC1(C)CN(c2ccc3c(c2)C(=O)N(C2CCC(=O)NC2=O)C3=O)CC(C)(C)C1NC(=O)c1ccc(-c2cnc(NCc3c(F)ccc4c3CCO4)n3cnc(Cl)c23)cc1 (centres unmarked)	188 nM
Cc1ncsc1-c1ccc([C@H](C)NC(=O)[C@@H]2C[C@@H](O)CN2C(=O)[C@@H](NC(=O)[C@H]2C[C@@H](Nc3ccc(-c4cnc(NCc5c(F)ccc6c5CCO6)n5cncc45)cc3I)C2)C(C)(C)C)cc1	191 nM
Cc1ncsc1-c1ccc([C@H](C)NC(=O)[C@@H]2C[C@@H](O)CN2C(=O)C(c2cc(NCC3CN(c4ccc(-c5cnc(NCc6c(F)ccc7c6CCO7)n6cnnc56)cc4)C3)no2)C(C)C)cc1 (some centres unmarked)	163 nM

target: EED protein (Homo sapiens, UniProt O75530); assay: EED protein degradation in Karpas-422 cells, In-cell western (ICW); conditions: 18 hours incubation
Description: In this experiment, In-cell western (ICW) method was used to quantitatively analyze the EED protein expression level in Karpas-422 cells to detect the degradation activity of the compounds on the target protein. The specific steps were as follows: • 1. Karpas-422 cells were purchased from Nanjing Cobioer (Catalog No. CBP60629), subcultured and maintained in logarithmic growth state using RPMI-1640 complete medium (containing 10% v/v fetal bovine serum) according to the supplier's recommended conditions. […] One day before cell seeding, a 384-well plate was coated with 30 µL of coating buffer (phosphate buffered saline containing 30 µg/mL poly-D-lysine) at room temperature for 2 hours. The coating solution was then discarded, and the plate was washed once with 90 µL of phosphate buffered saline, which was then discarded. The plate was allowed to air dry naturally in a clean bench, wrapped around the edges with Parafilm to prevent moisture, and stored in a 4°C refrigerator until use. • 3. Before cell seeding, cells were collected in a centrifuge tube, centrifuged at 250 rcf for 3 minutes, and the culture medium was discarded. The cells were resuspended in fresh complete medium, and 20 µL of the cell suspension was taken to calculate the cell concentration using a Countstar cell counter. After adjusting the density, cells were seeded into the prepared coated plate at 15,000 cells/45 µL and pre-incubated in a 37°C, 5% CO2 incubator for 4 hours. • 4. The negative and positive control groups were treated with 5 µL of control solution (serum-free medium containing 1% v/v DMSO). Compound gradient dilutions were prepared using the control solution, and 5 µL of the dilutions were added to the corresponding culture wells. The final concentration of DMSO in the test was 0.1% v/v. Subsequently, the plate was incubated in a 37°C, 5% CO2 incubator for 18 hours. • 5. The culture plate was removed, and cells were fixed by directly adding 10 µL of fixative solution (phosphate buffered saline containing 3% v/v glutaraldehyde) to the cells and incubating at room temperature for 30 minutes. The liquid was discarded. Subsequently, cells were treated with 30 µL of permeabilization staining solution (phosphate buffered saline containing 0.1% v/v Triton X-100 and 20 µg/mL Hoechst 33342) at room temperature for 30 minutes. The permeabilization solution was discarded, and the fluorescence value (excitation at 360 nm, emission at 460 nm) was read on a microplate reader. • 6. 50 µL of repair solution (50 mM citric acid buffer) was added to all wells, and the plate was incubated at 70°C for 2 hours on a constant temperature incubation shaker. The microplate was then removed, equilibrated to room temperature, and the liquid was discarded. • 7. A sufficient amount of antibody dilution buffer (Tris Buffered Saline-Tween solution containing 1% w/v bovine serum albumin) was prepared and stored in a 4°C refrigerator until use. • 8. Primary antibody dilution (EED antibody diluted 1:1000 with antibody dilution buffer) was prepared. 30 µL of antibody dilution buffer without antibody was added to the negative control group. 30 µL of the primary antibody dilution was added to the cells in the other groups, and the plate was incubated overnight at 4°C. • 9. The primary antibody dilution was discarded. The plate was washed 3 times with 90 µL of Tris Buffered Saline-Tween solution, and the wash solution was discarded. Secondary antibody dilution (HRP-linked antibody diluted 1:500 with antibody dilution buffer) was prepared, and 30 µL was added to the cells. The plate was incubated at room temperature for 2 hours. • 10. The secondary antibody dilution was discarded. The plate was washed 3 times with 90 µL of Tris Buffered Saline-Tween solution, and the wash solution was discarded. 30 µL of TMB substrate solution was added, and the plate was incubated at room temperature in the dark for 15 minutes. Then, 30 µL of stop solution (2 M sulfuric acid) was added to terminate the reaction. […]

SMILES	Dmax
Cn1nc(C2CCC(=O)NC2=O)c2ccc(N3CCN(C4CCN(Cc5ccc(-c6cnc(NCc7c(F)ccc8c7CCO8)n7cnc(Cl)c67)cn5)CC4(F)F)CC3)cc21 (centres unmarked)	53%
Cc1ncsc1-c1ccc([C@H](C)NC(=O)[C@@H]2C[C@@H](O)CN2C(=O)[C@@H](NC(=O)CCCNC(=O)c2ccc(-c3cnc(NCc4c(F)ccc5c4CCO5)n4cnc(C)c34)cn2)C(C)(C)C)cc1	78%
Cc1ncsc1-c1ccc([C@H](C)NC(=O)[C@@H]2C[C@@H](O)CN2C(=O)[C@@H](NC(=O)[C@H]2C[C@@H](NC(=O)c3ccc(-c4cnc(NCc5c(F)ccc6c5CCO6)n5cncc45)cn3)C2)C(C)(C)C)cc1	57%
O=C1CCC(N2C(=O)c3ccc(N4CCC(CN5CCC(CN6C7CCC6CN(c6cnc(NCc8c(F)ccc9c8CCO9)n8cnnc68)C7)CC5)CC4)cc3C2=O)C(=O)N1 (centres unmarked)	21%
Cn1nc(C2CCC(=O)NC2=O)c2ccc(N3CCC(CN4CCC(n5ncc(-c6cnc(NCc7c(F)ccc8c7CCO8)n7cnc(Cl)c67)c5C(F)(F)F)CC4)CC3)cc21 (centres unmarked)	64%
Cc1ncsc1-c1ccc([C@H](C)NC(=O)[C@@H]2C[C@@H](O)CN2C(=O)[C@@H](NC(=O)CCCC(=O)N2CCC3(CCc4cc(-c5cnc(NCc6c(F)ccc7c6CCO7)n6cnc(S(C)(=O)=O)c56)ccc43)CC2)C(C)(C)C)cc1	72%
Cc1csc(Nc2ccc([C@H](C)NC(=O)[C@@H]3C[C@@H](O)CN3C(=O)[C@@H](NC(=O)C3CN(c4ccc(-c5cnc(NCc6c(F)ccc7c6CCO7)n6cnnc56)cc4)C3)C(C)(C)C)cc2)n1	68%
Cc1nc(CN2CCC(N3CCN(c4ccc5c(C6CCC(=O)NC6=O)nn(C)c5c4)CC3)C(F)(F)C2)ccc1-c1cnc(NCc2c(F)ccc3c2CCO3)n2cnc(Cl)c12 (centres unmarked)	48%
O=C1CCC(N2C(=O)c3ccc(N4CCC5(CCN(C(=O)c6ccc(-c7cnc(NCc8c(F)ccc9c8CCO9)n8cnc(Cl)c78)cc6)CC5)CC4)cc3C2=O)C(=O)N1 (centres unmarked)	32%
Cc1nc(C(=O)NCCCC(=O)N[C@H](C(=O)N2C[C@H](O)C[C@H]2C(=O)N[C@@H](C)c2ccc(-c3scnc3C)cc2)C(C)(C)C)ccc1-c1cnc(NCc2c(F)ccc3c2CCO3)n2cnc(I)c12	63%
CCOC(=O)c1cn2c(-c3ccc(C4CCN(CC5CCN(c6ccc7c(C8CCC(=O)NC8=O)nn(C)c7c6)CC5)CC4)cc3)cnc(NCc3c(F)ccc4c3CCO4)c2n1 (centres unmarked)	38%
Cn1nc(C2CCC(=O)NC2=O)c2ccc(N3CCC(CN4CCC(c5ccc(-c6cnc(NCc7c(F)ccc8c7CCO8)c7nc(C(=O)O)cn67)cc5)CC4)CC3)cc21 (centres unmarked)	23%
Cc1cc(CN2CCC(N3CCN(c4ccc5c(C6CCC(=O)NC6=O)nn(C)c5c4)CC3)C(F)(F)C2)ccc1-c1cnc(NCc2c(F)ccc3c2CCO3)n2cc(C#N)nc12 (centres unmarked)	41%
O=C1CCC(N2C(=O)c3ccc(N4CCC(CN5CCN(c6ccc(-c7cnc(NCc8c(F)ccc9c8CCO9)n8cnc(Cl)c78)cc6)CC5)CC4)cc3C2=O)C(=O)N1 (centres unmarked)	35%
Cc1cc(CN2CCC(N3CCN(c4ccc(NC5CCC(=O)NC5=O)cc4F)CC3)C(F)(F)C2)ccc1-c1cnc(NCc2c(F)ccc3c2CCO3)n2cnc(Cl)c12 (centres unmarked)	27%
Cc1ncsc1-c1ccc([C@H](C)NC(=O)[C@@H]2C[C@@H](O)CN2C(=O)[C@@H](NC(=O)CCn2cc(-c3cnc(NCc4c(F)ccc5c4CCO5)n4cnc(I)c34)cn2)C(C)(C)C)cc1	46%
Cn1nc(C2CCC(=O)NC2=O)c2ccc(N3CCC(CN4CCC(c5ccc(-c6cnc(NCc7c(F)ccc8c7CCO8)c7nc(C(N)=O)cn67)cc5)CC4)CC3)cc21 (centres unmarked)	54%
Cn1nc(C2CCC(=O)NC2=O)c2ccc(N3CCC(CN4CCC(c5ccc(-c6cnc(NCc7c(F)ccc8c7CCO8)n7c(C#N)ncc67)cc5)CC4)CC3)cc21 (centres unmarked)	43%
Cn1nc(C2CCC(=O)NC2=O)c2ccc(N3CCC(CN4CCC(n5cc(-c6cnc(NCc7c(F)ccc8c7CCO8)n7cnc(Cl)c67)cn5)C(F)(F)C4)CC3)cc21 (centres unmarked)	43%
Cc1ncsc1-c1ccc([C@H](C)NC(=O)[C@@H]2C[C@@H](O)CN2C(=O)[C@@H](NC(=O)C2CN(c3ccc(-c4ccc(NCc5c(F)ccc6c5CCO6)n5cnnc45)cc3)C2)C(C)(C)C)cc1	51%
Cc1ncsc1-c1ccc([C@H](C)NC(=O)[C@@H]2C[C@@H](O)CN2C(=O)[C@@H](NC(=O)C2CN(C3CN(c4ccc(-c5cnc(NCc6c(F)ccc7c6CCO7)n6cnnc56)cn4)C3)C2)C(C)(C)C)cc1	39%
Cn1nc(C2CCC(=O)NC2=O)c2ccc(N3CC4(CC(CN5CCC(n6cc(-c7cnc(NCc8c(F)ccc9c8CCO9)n8cnc(Cl)c78)c(F)n6)CC5)C4)C3)cc21 (centres unmarked)	27%
Cc1ncsc1-c1ccc(C2CCCN2C(=O)[C@@H]2C[C@@H](O)CN2C(=O)[C@@H](NC(=O)C2CN(c3ccc(-c4cnc(NCc5c(F)ccc6c5CCO6)n5cnnc45)cc3)C2)C(C)(C)C)cc1 (some centres unmarked)	22%
Cc1ncsc1-c1ccc([C@H](C)NC(=O)[C@@H]2C[C@@H](O)CN2C(=O)[C@@H](NC(=O)C2CN(c3ccc(-c4cnc(NCc5c(F)ccc6c5CCO6)n5cnnc45)nc3)C2)C(C)(C)C)cc1	26%
Cc1nc(N2CCC(OC3CCN(c4ccc5c(C6CCC(=O)NC6=O)nn(C)c5c4)CC3)CC2)ccc1-c1cnc(NCc2c(F)ccc3c2CCO3)n2cnc(Cl)c12 (centres unmarked)	38%
